PubChem BioAssay AID1671195 | Yale University | 2021
Assay: 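Regulators of LDL receptor activity judged by labelled LDL uptake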 (primary screen). Cell system: human Huh7 hepatoma cells. Reagents: siRNA pool against human genes, 18 nM. Timing: about 2 to 2.5 days of knockdown, then 8 h LDL uptake. Treatment: DiI-labelled LDL at 30 µg/ml for 8 h, in lipoprotein-deficient serum medium. Measurement: 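Fluorescent LDL signal imaged in cells, scaled to the plate median, robust z-score for each replicate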. Scale: robust z-score: higher = more LDL uptake after knockdown. Rule for the call: 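a gene counts as active if at least two replicate z-scores exceed ±2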.
Here is a random part of about 22,000 reagents tested. About 1,510 of all reagents (6.9%) count as active. 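Active includes knockdowns raising or lowering LDL uptake; positive z-scores mean more uptake, negative mean less.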

target gene | robust z-score, replicate 1 | robust z-score, replicate 2 | robust z-score, replicate 3 | call
LOC441507 (retired record) | -0.486 | -1 | -0.672 | inactive
CNBD1 (cyclic nucleotide binding domain containing 1) | -0.52 | 0.338 | -0.569 | inactive
POLDIP3 (DNA polymerase delta interacting protein 3) | 0.174 | 0.222 | 0.71 | inactive
CDK18 (cyclin dependent kinase 18) | -1.41 | -0.671 | -0.503 | inactive
LINC00545 (long intergenic non-protein coding RNA 545) | 2.05 | 1.88 | 1.6 | inactive
CCDC97 (coiled-coil domain containing 97) | -0.177 | 0.404 | 0.185 | inactive
TBCB (tubulin folding cofactor B) | 0.512 | -0.0672 | 0.0425 | inactive
ABCC5 (ATP binding cassette subfamily C member 5) | 1.78 | 2.72 | 1.11 | inactive
NCAPG (non-SMC condensin I complex subunit G) | -1.32 | -1.21 | -1.37 | inactive
PNRC1 (proline rich nuclear receptor coactivator 1) | 0.429 | -0.835 | 0.42 | inactive
C6orf52 (chromosome 6 open reading frame 52) | -0.178 | -0.0428 | 0.175 | inactive
LOC441651 (retired record) | 5.32 | 6.38 | 5.6 | active
STRN4 (striatin 4) | -2.38 | -0.943 | -3.02 | active
OR13J1 (olfactory receptor family 13 subfamily J member 1) | -0.697 | -0.333 | -0.371 | inactive
CIDEC (cell death inducing DFFA like effector c) | -1.04 | -1.21 | -0.719 | inactive
ULK1 (unc-51 like autophagy activating kinase 1) | 3.62 | 5.23 | 2.46 | active
GALNT4 (polypeptide N-acetylgalactosaminyltransferase 4) | -0.599 | -0.798 | -0.557 | inactive
SMU1 (SMU1 DNA replication regulator and spliceosomal factor) | -0.534 | 2.07 | 0.22 | inactive
PYGB (glycogen phosphorylase B) | -0.858 | -0.562 | -0.443 | inactive
KRT84 (keratin 84) | 0.972 | -0.323 | 0.333 | inactive
VIM (vimentin) | 2.38 | 0.301 | 4.33 | active
LOC442452 (retired record) | -0.746 | -0.501 | -0.839 | inactive
LOC401715 (retired record) | -1.58 | -1.76 | -1.84 | inactive
PRRC2A (proline rich coiled-coil 2A) | -0.795 | -0.738 | -0.0751 | inactive
ZNF658 (zinc finger protein 658) | -2.14 | -2.09 | -1.41 | active
LOC388002 (retired record) | 0.36 | 0.0621 | -0.0499 | inactive
ZNF823 (zinc finger protein 823) | 0.721 | 0.775 | 0.919 | inactive
LOC441157 (retired record) | -1.1 | -1.49 | -1.46 | inactive

2 of these entries in another layout:
ZNF823 (zinc finger protein 823) — robust z-score, replicate 1: 0.721; robust z-score, replicate 2: 0.775; robust z-score, replicate 3: 0.919; call: inactive
LOC441157 (retired record) — robust z-score, replicate 1: -1.1; robust z-score, replicate 2: -1.49; robust z-score, replicate 3: -1.46; call: inactive
